Amino acid sequences for entries named in this document (tags omitted). Residues count along the entry.
UniProt P29323, residues 19-1055: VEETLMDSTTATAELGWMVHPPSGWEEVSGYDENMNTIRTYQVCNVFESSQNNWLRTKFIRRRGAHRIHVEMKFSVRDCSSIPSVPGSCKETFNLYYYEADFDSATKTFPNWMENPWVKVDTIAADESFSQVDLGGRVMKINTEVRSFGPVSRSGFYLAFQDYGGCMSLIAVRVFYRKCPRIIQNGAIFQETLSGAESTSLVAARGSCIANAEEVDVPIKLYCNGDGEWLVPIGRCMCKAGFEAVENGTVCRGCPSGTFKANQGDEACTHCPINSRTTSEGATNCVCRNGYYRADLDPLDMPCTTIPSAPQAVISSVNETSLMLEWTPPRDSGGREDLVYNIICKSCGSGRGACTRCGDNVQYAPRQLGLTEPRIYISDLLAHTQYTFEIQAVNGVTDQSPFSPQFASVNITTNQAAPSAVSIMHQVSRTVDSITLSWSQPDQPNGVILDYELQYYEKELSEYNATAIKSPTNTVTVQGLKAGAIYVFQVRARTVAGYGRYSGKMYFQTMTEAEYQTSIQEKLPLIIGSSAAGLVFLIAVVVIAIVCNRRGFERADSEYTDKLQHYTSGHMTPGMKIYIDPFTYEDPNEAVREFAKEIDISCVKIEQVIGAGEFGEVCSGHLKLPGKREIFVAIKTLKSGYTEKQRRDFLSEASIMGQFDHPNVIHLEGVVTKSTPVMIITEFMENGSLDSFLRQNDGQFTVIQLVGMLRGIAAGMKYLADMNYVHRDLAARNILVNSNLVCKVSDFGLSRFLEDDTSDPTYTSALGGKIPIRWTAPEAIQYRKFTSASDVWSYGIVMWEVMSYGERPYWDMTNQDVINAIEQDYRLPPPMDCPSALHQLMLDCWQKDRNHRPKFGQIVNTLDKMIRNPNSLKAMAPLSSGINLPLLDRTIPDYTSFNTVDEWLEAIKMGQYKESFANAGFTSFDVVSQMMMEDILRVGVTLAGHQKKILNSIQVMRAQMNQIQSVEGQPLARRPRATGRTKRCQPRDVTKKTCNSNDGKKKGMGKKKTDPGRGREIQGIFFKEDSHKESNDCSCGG
UniProt P46108: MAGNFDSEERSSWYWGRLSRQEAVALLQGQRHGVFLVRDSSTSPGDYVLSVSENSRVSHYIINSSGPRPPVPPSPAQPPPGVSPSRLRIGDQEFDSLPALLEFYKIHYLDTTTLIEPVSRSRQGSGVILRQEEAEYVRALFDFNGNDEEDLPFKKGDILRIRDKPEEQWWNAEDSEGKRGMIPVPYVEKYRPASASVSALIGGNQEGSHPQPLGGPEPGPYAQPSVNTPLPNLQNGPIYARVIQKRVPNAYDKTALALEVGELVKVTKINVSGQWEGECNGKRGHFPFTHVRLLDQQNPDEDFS
UniProt Q9H3S7: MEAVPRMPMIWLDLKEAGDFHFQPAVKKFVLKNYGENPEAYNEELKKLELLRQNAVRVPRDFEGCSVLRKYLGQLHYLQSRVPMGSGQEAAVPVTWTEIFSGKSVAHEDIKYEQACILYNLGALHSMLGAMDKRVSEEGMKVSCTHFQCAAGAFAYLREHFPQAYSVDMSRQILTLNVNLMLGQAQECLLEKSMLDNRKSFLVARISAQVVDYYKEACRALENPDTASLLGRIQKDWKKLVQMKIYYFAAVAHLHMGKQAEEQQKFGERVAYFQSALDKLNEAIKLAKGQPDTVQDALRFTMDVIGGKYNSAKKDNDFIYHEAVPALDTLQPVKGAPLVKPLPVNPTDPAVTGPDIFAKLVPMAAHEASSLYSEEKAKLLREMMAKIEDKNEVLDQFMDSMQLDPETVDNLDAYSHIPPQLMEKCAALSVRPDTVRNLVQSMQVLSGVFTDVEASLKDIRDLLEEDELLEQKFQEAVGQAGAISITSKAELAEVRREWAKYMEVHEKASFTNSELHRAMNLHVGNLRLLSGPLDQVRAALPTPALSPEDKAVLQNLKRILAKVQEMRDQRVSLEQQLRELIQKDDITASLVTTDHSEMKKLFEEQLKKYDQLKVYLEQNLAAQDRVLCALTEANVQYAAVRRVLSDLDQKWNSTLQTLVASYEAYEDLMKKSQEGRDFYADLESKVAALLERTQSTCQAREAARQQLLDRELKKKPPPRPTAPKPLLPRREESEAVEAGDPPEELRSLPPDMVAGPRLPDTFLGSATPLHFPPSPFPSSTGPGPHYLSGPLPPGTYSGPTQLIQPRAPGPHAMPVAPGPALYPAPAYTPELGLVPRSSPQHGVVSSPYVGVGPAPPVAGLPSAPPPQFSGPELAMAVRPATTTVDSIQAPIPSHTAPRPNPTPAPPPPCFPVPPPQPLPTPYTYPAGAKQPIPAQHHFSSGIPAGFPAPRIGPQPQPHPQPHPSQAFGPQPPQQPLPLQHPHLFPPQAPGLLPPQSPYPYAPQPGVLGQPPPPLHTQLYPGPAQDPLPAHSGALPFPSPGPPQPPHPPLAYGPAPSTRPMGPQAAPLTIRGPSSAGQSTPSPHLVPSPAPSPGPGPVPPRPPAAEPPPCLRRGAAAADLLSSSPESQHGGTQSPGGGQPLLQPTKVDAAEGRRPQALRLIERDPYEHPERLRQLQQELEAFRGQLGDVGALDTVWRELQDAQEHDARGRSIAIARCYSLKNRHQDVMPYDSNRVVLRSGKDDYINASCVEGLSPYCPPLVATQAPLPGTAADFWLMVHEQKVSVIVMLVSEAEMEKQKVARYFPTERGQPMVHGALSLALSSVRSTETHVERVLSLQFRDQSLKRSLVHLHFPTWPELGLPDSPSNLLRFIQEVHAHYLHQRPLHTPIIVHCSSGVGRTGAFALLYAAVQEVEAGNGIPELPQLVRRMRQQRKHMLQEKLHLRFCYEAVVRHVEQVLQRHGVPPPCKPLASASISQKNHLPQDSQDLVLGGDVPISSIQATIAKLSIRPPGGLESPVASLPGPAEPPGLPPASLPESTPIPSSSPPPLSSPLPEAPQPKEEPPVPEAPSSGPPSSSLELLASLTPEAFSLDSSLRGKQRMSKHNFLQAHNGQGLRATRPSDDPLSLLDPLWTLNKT
UniProt O43639: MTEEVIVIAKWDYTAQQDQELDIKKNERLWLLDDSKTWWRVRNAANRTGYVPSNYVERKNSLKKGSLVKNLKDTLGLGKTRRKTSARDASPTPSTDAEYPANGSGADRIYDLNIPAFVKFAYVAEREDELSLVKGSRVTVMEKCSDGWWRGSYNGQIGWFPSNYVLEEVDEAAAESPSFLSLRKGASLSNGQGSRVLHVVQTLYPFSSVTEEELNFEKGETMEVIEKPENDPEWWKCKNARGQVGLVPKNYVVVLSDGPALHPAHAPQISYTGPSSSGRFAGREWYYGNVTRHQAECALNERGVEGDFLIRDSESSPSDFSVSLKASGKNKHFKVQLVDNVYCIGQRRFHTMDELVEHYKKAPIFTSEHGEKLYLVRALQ
UniProt P27986: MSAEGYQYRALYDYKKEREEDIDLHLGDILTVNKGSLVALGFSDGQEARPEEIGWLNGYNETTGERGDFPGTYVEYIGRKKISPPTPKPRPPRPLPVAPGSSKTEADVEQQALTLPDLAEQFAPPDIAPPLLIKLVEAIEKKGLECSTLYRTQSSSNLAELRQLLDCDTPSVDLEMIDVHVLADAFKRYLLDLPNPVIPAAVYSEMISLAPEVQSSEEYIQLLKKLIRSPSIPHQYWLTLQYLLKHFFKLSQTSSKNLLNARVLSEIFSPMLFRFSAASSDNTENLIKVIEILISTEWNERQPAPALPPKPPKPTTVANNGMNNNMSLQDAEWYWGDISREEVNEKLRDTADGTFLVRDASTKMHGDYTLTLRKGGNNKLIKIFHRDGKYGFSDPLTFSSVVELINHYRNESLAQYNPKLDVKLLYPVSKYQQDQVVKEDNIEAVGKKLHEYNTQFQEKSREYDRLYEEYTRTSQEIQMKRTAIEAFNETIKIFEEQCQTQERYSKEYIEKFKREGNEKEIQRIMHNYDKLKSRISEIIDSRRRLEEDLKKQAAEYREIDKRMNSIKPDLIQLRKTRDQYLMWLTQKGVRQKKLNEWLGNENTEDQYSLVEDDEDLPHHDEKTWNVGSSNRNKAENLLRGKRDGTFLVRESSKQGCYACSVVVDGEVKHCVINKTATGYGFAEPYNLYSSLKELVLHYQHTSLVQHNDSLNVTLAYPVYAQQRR
UniProt Q96T51: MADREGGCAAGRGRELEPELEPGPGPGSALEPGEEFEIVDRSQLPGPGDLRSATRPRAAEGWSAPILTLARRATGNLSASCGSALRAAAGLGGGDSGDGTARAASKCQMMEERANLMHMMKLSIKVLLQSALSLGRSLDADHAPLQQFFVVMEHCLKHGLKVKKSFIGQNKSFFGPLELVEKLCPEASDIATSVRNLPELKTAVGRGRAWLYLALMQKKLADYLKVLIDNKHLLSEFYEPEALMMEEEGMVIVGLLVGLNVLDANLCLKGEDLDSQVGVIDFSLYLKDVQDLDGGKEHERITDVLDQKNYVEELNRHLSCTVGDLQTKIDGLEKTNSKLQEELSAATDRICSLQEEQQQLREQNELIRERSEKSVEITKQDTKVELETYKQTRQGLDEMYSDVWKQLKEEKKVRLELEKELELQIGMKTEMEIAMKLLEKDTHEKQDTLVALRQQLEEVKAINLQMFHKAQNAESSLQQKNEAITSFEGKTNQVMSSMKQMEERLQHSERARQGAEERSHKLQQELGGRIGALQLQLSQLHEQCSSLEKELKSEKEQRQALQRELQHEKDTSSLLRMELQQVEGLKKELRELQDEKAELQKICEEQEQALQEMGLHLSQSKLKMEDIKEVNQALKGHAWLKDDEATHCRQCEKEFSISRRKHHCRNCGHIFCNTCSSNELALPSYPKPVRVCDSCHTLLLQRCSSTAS

According to paper doi:10.1101/386631:

Molecular target: EphB2-BirA*-FLAG (UniProt P29323)
Assay: proximity labelling

CRK (from UniProt P46108 1-304)
binding: binds

HD-PTP (endogenous, HEK293) (from UniProt Q9H3S7 1-1636)
binding: binds

Nck adaptor protein NCK2 (from UniProt O43639 1-380)
binding: binds

Pik3r1 (from UniProt P27986 1-724)
binding: binds

RUN and FYVE domain-containing protein 1 (RUFY1) (from UniProt Q96T51 1-708)
binding: binds

These are yes or no findings as the source states them, for the method shown. Binding seen in cells or lysates may run through a third protein. Here binding means that the protein was enriched with, or labelled near, the bait; the list need not be complete.
